{"source": "PubChem BioAssay AID540276", "about": "(National Center for Advancing Translational Sciences (NCATS), 2011)", "note": "Where “and” joins values, the source holds several entries; their conditions need not be identical. Identical values can stand only once. The campaign covered roughly 300,000 compounds. About 5,400 (1.8%) were called active. Inconclusive means that the source gave no clear call. Such entries were picked first, then a sample of the others. Calls come from the whole dose curve; tested in HEK293 cells. Potencies beside an inconclusive call are fits to weak or partial responses and may not hold up. % is set by controls: 0 for no effect and ±100 for the full control effect; potency is the fitted concentration of half-maximal effect."}
{"assay": "qHTS for inhibitors of binding or entry into cells for Marburg Virus", "conditions": "Marburg virus pseudotyped entry inhibition, cell reporter; activity change, negative = inhibition: at 37.8 µM (top of the series) unless noted"}
{"smiles": "Cc1ccc(S(=O)(=O)c2c(N)n(/N=C/c3ccco3)c3nc4ccccc4nc23)cc1", "Potency": "inconclusive: 20.6 µM [inhibitor, partial curve, poor fit]"}
{"smiles": "N#Cc1ccc(CSc2nnc(-c3ccccn3)n2-c2ccc(Cl)cc2)cc1", "Potency": "inconclusive: 7.08 µM [activator, partial curve, poor fit]"}
{"smiles": "Cc1ccc(Cl)cc1NC(=O)CN(C)S(=O)(=O)c1ccc2c(c1)n(C)c(=O)c(=O)n2C", "activity change, negative = inhibition": "inactive: 15.8% [at 46.1 µM]"}
{"smiles": "O=C(Oc1cc(=O)oc2ccccc12)c1cccnc1Cl", "Potency": "inconclusive: 35.5 µM [inhibitor, single point]"}
{"smiles": "CCOc1cc(/C=C/c2ccc3cccc([N+](=O)[O-])c3n2)cc(Cl)c1O", "activity change, negative = inhibition": "inactive: -20.1%"}
{"smiles": "Cn1ncc(Cl)c1C(=O)N1CCN(S(=O)(=O)c2ccc(Cl)s2)CC1", "activity change, negative = inhibition": "inactive: 0.0535%"}
{"smiles": "Cn1c(SCc2c(Cl)cccc2Cl)nc(C(F)(F)F)cc1=O", "Potency": "inconclusive: 32.6 µM [inhibitor, single point]"}
{"smiles": "Cc1cccc(C)c1Nc1c(-c2ccc(Cl)s2)nc2ncccn12", "Potency": "inconclusive: 8.91 µM [inhibitor, partial curve, poor fit]"}
{"smiles": "NC(=O)CSc1nccn1Cc1ccccc1", "activity change, negative = inhibition": "inactive: -0.31%"}
{"smiles": "O=C(O)CCN1C(=O)CC2(CCCCC2)C1=O", "Potency": "inconclusive: 28.2 µM [activator, single point]"}
{"smiles": "COC(=O)c1ccccc1NC(=O)Nc1ccc(Br)cn1", "activity change, negative = inhibition": "inactive: -16.9% [at 14.2 µM]"}
{"smiles": "COc1ccc(CNC(=O)CSc2ncn[nH]2)cc1", "Potency": "inconclusive: 0.891 µM [inhibitor, single point]"}
{"smiles": "Cc1[nH]c2ccccc2c1C(=O)CSc1nc2ncc(Cl)cc2[nH]1", "activity change, negative = inhibition": "inactive: -10.2%"}
{"smiles": "CC1CCN(C(=O)COC(=O)c2cc3ccccc3cc2O)CC1", "activity change, negative = inhibition": "inactive: -0.382%"}
{"smiles": "Cc1nc2ccccc2c(=O)n1/N=C/c1ccccc1", "activity change, negative = inhibition": "inactive: 11%"}
{"smiles": "COc1cccc(CNC(=O)c2cc(=O)[nH]c3ccc(S(=O)(=O)N4CCCCC4)cc23)c1", "Potency": "inconclusive: 1 µM [inhibitor, full curve, poor fit]"}
{"smiles": "Cc1cccc(N(C(=O)c2snc(C(N)=O)c2N)C(C(=O)NCc2ccccc2)c2ccncc2)c1", "note": "(stereo not given)", "Potency": "inconclusive: 35.5 µM [inhibitor, single point]"}
{"smiles": "O=C(NC1CCCCCC1)c1ccc([N+](=O)[O-])s1", "Potency": "inconclusive: 8.91 µM [activator, partial curve]"}
{"smiles": "O=C(Nc1ccccc1)Nc1nnc(Cc2ccc([N+](=O)[O-])cc2)s1", "Potency": "inconclusive: 35.5 µM [inhibitor, single point]"}
{"smiles": "CC(C)C(CCNC(=O)CC(Cc1ccccc1)c1ccco1)c1ccco1", "note": "(stereo not given)", "Potency": "inconclusive: 29.1 µM [inhibitor, single point]"}
{"smiles": "CCCCOc1ccc(-c2cc3c(=O)n(CC(=O)Nc4ccc(Cl)cc4Cl)ccn3n2)cc1", "activity change, negative = inhibition": "inactive: 1.26% [at 46.1 µM]"}
{"smiles": "O=C(CSc1nc2c(cnn2-c2ccc(F)cc2)c(=O)[nH]1)Nc1ccc(Br)cc1", "Potency": "inconclusive: 35.5 µM [activator, single point]"}
{"smiles": "COc1cc(C)nc(N2CCC(C(=O)NC3CCCCC3)CC2)n1", "activity change, negative = inhibition": "inactive: -4.98%"}
{"smiles": "CCOc1cc(NC(=S)NCCCN2CCOCC2)c(OCC)cc1NC(=O)c1ccccc1C", "Potency": "inconclusive: 29.1 µM [inhibitor, partial curve, poor fit]"}
{"smiles": "COc1cccc(-c2cc(=O)c3ccccc3o2)c1N", "Potency": "inconclusive: 4.61 µM [activator, partial curve] and inconclusive: 35.5 µM [inhibitor, single point]"}
{"smiles": "Cc1cccc(N=c2c([N+](=O)[O-])nn(-c3ccc(Cl)cc3)n2O)c1", "activity change, negative = inhibition": "inactive: 11.4% [at 46.1 µM]"}
{"smiles": "COc1cccc(NC(=O)CC2C(=O)OCCN2Cc2ccccc2)c1", "note": "(stereo not given)", "activity change, negative = inhibition": "inactive: 14.6% [at 46.1 µM]"}
{"smiles": "Cc1ccc(S(=O)(=O)c2c(N)n(Cc3ccco3)c3nc4ccccc4nc23)cc1", "Potency": "inconclusive: 29.1 µM [inhibitor, partial curve, poor fit]"}
{"smiles": "Cc1ccc2oc(C(=O)N(Cc3ccccc3F)C3CCS(=O)(=O)C3)c(C)c2c1", "note": "(stereo not given)", "Potency": "inconclusive: 5.62 µM [activator, single point]"}
{"smiles": "COc1ccc(Cl)cc1NC(=O)CN1CCN(S(=O)(=O)c2ccc(F)cc2)CC1", "activity change, negative = inhibition": "inactive: -3.36% [at 46.1 µM]"}
{"smiles": "CCOC(=O)N1CCN(CC(O)COCCC23CC4CC(CC(C4)C2)C3)CC1", "note": "(stereo not given)", "Potency": "inconclusive: 3.98 µM [activator, single point]"}
{"smiles": "CCc1cccc(NS(=O)(=O)c2csc(C(N)=O)c2)c1", "Potency": "inconclusive: 2.24 µM [inhibitor, full curve]"}
{"smiles": "COc1ccc(/C=C/C(=O)NC(=S)NNC(=O)Cc2cccs2)cc1OC", "Potency": "inconclusive: 12.6 µM [inhibitor, partial curve, poor fit]"}
{"smiles": "CSC1=C(C#N)C(c2sccc2C)CC(=O)N1", "note": "(stereo not given)", "activity change, negative = inhibition": "inactive: -17.6% [at 46.1 µM]"}
{"smiles": "Cc1nnc(SCC(=O)Nc2ccc(-c3nc4ccccc4s3)cc2)s1", "Potency": "inconclusive: 8.91 µM [inhibitor, partial curve, poor fit]"}
{"smiles": "COC(=O)C(C(C)=O)C(NC(=O)NCc1ccccc1)c1ccccc1", "note": "(stereo not given)", "activity change, negative = inhibition": "inactive: 25.3% [at 14.2 µM]"}
{"smiles": "Cc1cc(NC(=O)Cc2cccs2)no1", "activity change, negative = inhibition": "inactive: 29.1%"}
{"smiles": "Cc1ccc2sc(N(CCCN(C)C)C(=O)c3ccc(S(=O)(=O)N4CCCCCC4)cc3)nc2c1C", "Potency": "inconclusive: 11.2 µM [inhibitor, partial curve, poor fit]"}
{"smiles": "CCOc1ccc(/C=N/NC(=O)Cc2csc(Nc3cccc(C(F)(F)F)c3)n2)c(OCC)c1", "Potency": "inconclusive: 35.5 µM [inhibitor, single point]"}
{"smiles": "O=C(CNc1ccccc1F)Nc1cccc2ccccc12", "activity change, negative = inhibition": "inactive: -3.72% [at 46.1 µM]"}
{"smiles": "CC1CCC(C(C)C)C(OCC(O)CNC(C)c2ccccc2)C1", "note": "(stereo not given)", "Potency": "inconclusive: 2.51 µM [inhibitor, full curve, poor fit]"}
{"smiles": "Cc1cc(C)cc(N2C(=O)NC(=O)/C(=C\\c3cccn3-c3ccc(Cl)cc3)C2=O)c1", "Potency": "inconclusive: 4.47 µM [inhibitor, partial curve, poor fit]"}
{"smiles": "N#CCOC(=O)C1CCN(S(=O)(=O)c2ccc3c(c2)OCCO3)CC1", "activity change, negative = inhibition": "inactive: 18.4%"}
{"smiles": "CC1(C)C(=O)Nc2ccccc2N1C(=O)COC(=O)CCSc1ccccc1", "activity change, negative = inhibition": "inactive: -6.19%"}
{"smiles": "CC(C)C[C@H](NC(=O)[C@@H]1Cc2ccccc2CN1)C(=O)Nc1ccc(C(C)C)cc1", "Potency": "inconclusive: 22.4 µM [inhibitor, single point]"}
{"smiles": "Cc1oc(-c2ccc3c(c2)OCCO3)cc1C(=O)NC(Cc1ccccc1)C(=O)O", "note": "(stereo not given)", "activity change, negative = inhibition": "inactive: -12.3% [at 46.1 µM]"}
{"smiles": "CCCCn1c(-c2cccs2)nc2oc3ccccc3c(=O)c2c1=O", "Potency": "inconclusive: 1.26 µM [inhibitor, single point]"}
{"smiles": "CSc1ccccc1NC(=O)Cn1ccsc1=N", "Potency": "inconclusive: 17.8 µM [inhibitor, single point]"}
{"smiles": "CCOC(=O)c1sc(N)nc1C(F)(F)F", "activity change, negative = inhibition": "inactive: 9.83% [at 46.1 µM]"}
{"smiles": "Cc1cc(C)n(-c2nnc3n2N=C(c2c[nH]c4ccccc24)CS3)n1", "Potency": "inconclusive: 2.24 µM [inhibitor, full curve, poor fit]"}
{"smiles": "Cc1cccc(C)c1-n1c(C)cc(/C=N/NC(=O)CSc2ncccn2)c1C", "Potency": "inconclusive: 0.562 µM [inhibitor, full curve, poor fit]"}
{"smiles": "Cc1ccc2c(c1)c(-c1ccccc1)nc1nnnn12", "Potency": "inconclusive: 0.562 µM [activator, full curve, poor fit]"}
{"smiles": "COc1ccc(OC)c(-c2cc(C(=O)Nc3cc(C)n(Cc4ccc(Cl)cc4)n3)no2)c1", "Potency": "inconclusive: 9.2 µM [inhibitor, partial curve]"}
{"smiles": "O=C(N/N=C/c1cc([N+](=O)[O-])ccc1Cl)c1ccc2nc[nH]c2c1", "activity change, negative = inhibition": "inactive: 18.8%"}
{"smiles": "CC(=O)Nc1nonc1-c1nnc(SCC(=O)Nc2ccc(C)cc2C)n1C", "Potency": "inconclusive: 6.31 µM [inhibitor, single point]"}
{"smiles": "COc1ccc(NC(=O)[C@@H](c2ccccc2)N2Cc3ccccc3C2=O)cc1OC", "activity change, negative = inhibition": "inactive: 5.1% [at 46.1 µM]"}
{"smiles": "COc1cccc(Cn2c(=O)sc3ccccc3c2=O)c1", "Potency": "inconclusive: 22.4 µM [inhibitor, single point]"}
{"smiles": "O=C(Nc1ccccc1)OCc1ccccn1", "activity change, negative = inhibition": "inactive: 23.6%"}
{"smiles": "Cc1cccc(C)c1NC(=O)CN1C(=O)S/C(=C\\c2cccn2C)C1=O", "Potency": "inconclusive: 13 µM [inhibitor, partial curve, poor fit]"}
{"smiles": "O=C(O)c1ccccc1OC(C(=O)Nc1cc(Cl)cc(Cl)c1)c1ccccc1", "note": "(stereo not given)", "Potency": "inconclusive: 6.31 µM [inhibitor, full curve, poor fit]"}
{"smiles": "CCCCCCC(=O)NC(Nc1ccc(S(N)(=O)=O)cc1)C(Cl)(Cl)Cl", "note": "(stereo not given)", "Potency": "inconclusive: 0.562 µM [inhibitor, full curve, poor fit]"}
{"smiles": "O=C(Nc1ccc(SC(F)F)cc1)c1cc(-c2ccc3c(c2)OCCO3)on1", "activity change, negative = inhibition": "inactive: -19.1% [at 46.1 µM]"}
{"smiles": "Cc1cccc2cc(C(c3nnnn3Cc3ccccc3)N3CCN(c4ccccc4)CC3)c(=O)[nH]c12", "note": "(stereo not given)", "Potency": "inconclusive: 20.6 µM [inhibitor, partial curve, poor fit]"}
{"smiles": "O=C(CSc1nncs1)Nc1ccc(Cl)cc1C(F)(F)F", "activity change, negative = inhibition": "inactive: -11.9%"}
{"smiles": "CC(C)(C)C(=O)COC(=O)c1cccc(NC(=O)c2ccco2)c1", "activity change, negative = inhibition": "inactive: 11.2%"}
{"smiles": "CCOc1cnc(-c2ccc(Cl)cc2)o1", "Potency": "inconclusive: 17.8 µM [activator, single point]"}
{"smiles": "Cc1ccc(NC(=O)CN(C)C(=O)Cc2ccc(Cl)cc2Cl)cc1", "Potency": "inconclusive: 20 µM [inhibitor, partial curve, poor fit]"}
{"smiles": "O=C(CSc1nnc(-c2cnccn2)n1Cc1ccco1)c1ccc(Cl)cc1", "activity change, negative = inhibition": "inactive: 22.9%"}
{"smiles": "Cc1nn(C)cc1/C=N/NC(=O)c1sc2ccccc2c1Cl", "Potency": "inconclusive: 35.5 µM [inhibitor, single point]"}
{"smiles": "CCOC(=O)N1CCN(C(=O)CN(c2cccc(Cl)c2C)S(=O)(=O)c2ccc(C)cc2)CC1", "Potency": "inconclusive: 22.4 µM [inhibitor, single point]"}
